25 compounds from patent EP4831176A1, “BICYCLIC FUSED HETEROAROMATIC RING DERIVATIVE, AND PHARMACEUTICAL COMPOSITION AND USE THEREOF” (dated 2026) can be followed below.

Amino acid sequences for entries named in this document (tags omitted).
UniProt O75530, whole entry: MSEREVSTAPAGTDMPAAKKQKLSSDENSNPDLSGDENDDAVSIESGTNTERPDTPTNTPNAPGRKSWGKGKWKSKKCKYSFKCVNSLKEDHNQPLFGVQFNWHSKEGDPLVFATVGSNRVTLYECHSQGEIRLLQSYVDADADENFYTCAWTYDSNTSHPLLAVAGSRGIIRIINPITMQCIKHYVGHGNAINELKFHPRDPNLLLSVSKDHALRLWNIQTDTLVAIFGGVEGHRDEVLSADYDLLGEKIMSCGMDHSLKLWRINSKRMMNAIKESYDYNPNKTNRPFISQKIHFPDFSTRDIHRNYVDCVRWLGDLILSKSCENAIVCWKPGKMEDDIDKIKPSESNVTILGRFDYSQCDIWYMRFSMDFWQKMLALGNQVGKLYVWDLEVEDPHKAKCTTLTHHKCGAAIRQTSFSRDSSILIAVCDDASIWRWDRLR

For assay [1], the system named is Pfeiffer cells. The assay can be described thus: Proliferation inhibition of Pfeiffer tumor cells, Cell Titer-Glo. The conditions noted are these: read-out: CTG IC50, 144 hours incubation. An excerpt:
In this experiment, Cell Titer-Glo reagent was used to quantitatively analyze the proliferation activity of Pfeiffer cells to detect the inhibitory ability of the compounds on tumor cell proliferation. The specific steps were as follows: • 1. Pfeiffer cells were purchased from Nanjing Cobioer (purchased from ATCC, Catalog No. #CRL2632), subcultured and maintained in logarithmic growth state using RPMI-1640 complete medium (containing 10% v/v fetal bovine serum) according to the supplier's recommended conditions. […] Before cell seeding, cells were collected in a centrifuge tube, centrifuged at 250 rcf for 3 minutes, and the culture medium was discarded. The cells were resuspended in fresh complete medium, and 20 µL of the cell suspension was taken to calculate the cell concentration using a Countstar cell counter. After adjusting the density, cells were seeded into a 384-well plate at 2,000 cells/45 µL and pre-incubated in a 37°C, 5% CO2 incubator for 4 hours. • 3. The negative and positive control groups were treated with 5 µL of control solution (non-complete medium containing 1% v/v DMSO). Compound gradient dilutions were prepared using non-complete medium, and 5 µL of the dilutions were added to the corresponding culture wells. The final concentration of DMSO in the test was 0.1% v/v. Subsequently, the plate was incubated in a 37°C, 5% CO2 incubator for 144 hours. • 4. 40 µL of Cell Titer-Glo reagent was added directly to the cell culture, and the plate was incubated at room temperature in the dark for 30 minutes. The luminescence value was then read on a plate reader, and the results were used to analyze the cell proliferation ratio and compound activity. • 5. The signal value of the negative control group was set as Bottom, and the signal value of the positive control group was set as Top. The compound concentration value (logarithm) was the X-axis, and the luminescence reading at the corresponding concentration was the Y-axis, with HillSlope as the slope factor. A four-parameter logistic model (4PL logistic model) was used for fitting, and the calculation method was as follows:Y = Bottom + (Top - Bottom) / (1 + 10^((Log IC50 - X) × HillSlope))
After fitting, the IC50 value of the compound was calculated, and the proliferation inhibitory activity of the compound was compared based on the IC50 value.
On the technique in general: In ATP-based viability assays light output follows the ATP content of the culture.

Assay [2] deals with EED protein (Homo sapiens, UniProt O75530). The assay is described as follows: EED protein degradation in Karpas-422 cells, In-cell western (ICW). The conditions noted are these: 18 hours incubation. An excerpt:
In this experiment, In-cell western (ICW) method was used to quantitatively analyze the EED protein expression level in Karpas-422 cells to detect the degradation activity of the compounds on the target protein. The specific steps were as follows: • 1. Karpas-422 cells were purchased from Nanjing Cobioer (Catalog No. CBP60629), subcultured and maintained in logarithmic growth state using RPMI-1640 complete medium (containing 10% v/v fetal bovine serum) according to the supplier's recommended conditions. […] One day before cell seeding, a 384-well plate was coated with 30 µL of coating buffer (phosphate buffered saline containing 30 µg/mL poly-D-lysine) at room temperature for 2 hours. The coating solution was then discarded, and the plate was washed once with 90 µL of phosphate buffered saline, which was then discarded. The plate was allowed to air dry naturally in a clean bench, wrapped around the edges with Parafilm to prevent moisture, and stored in a 4°C refrigerator until use. • 3. Before cell seeding, cells were collected in a centrifuge tube, centrifuged at 250 rcf for 3 minutes, and the culture medium was discarded. The cells were resuspended in fresh complete medium, and 20 µL of the cell suspension was taken to calculate the cell concentration using a Countstar cell counter. After adjusting the density, cells were seeded into the prepared coated plate at 15,000 cells/45 µL and pre-incubated in a 37°C, 5% CO2 incubator for 4 hours. • 4. The negative and positive control groups were treated with 5 µL of control solution (serum-free medium containing 1% v/v DMSO). Compound gradient dilutions were prepared using the control solution, and 5 µL of the dilutions were added to the corresponding culture wells. The final concentration of DMSO in the test was 0.1% v/v. Subsequently, the plate was incubated in a 37°C, 5% CO2 incubator for 18 hours. • 5. The culture plate was removed, and cells were fixed by directly adding 10 µL of fixative solution (phosphate buffered saline containing 3% v/v glutaraldehyde) to the cells and incubating at room temperature for 30 minutes. The liquid was discarded. Subsequently, cells were treated with 30 µL of permeabilization staining solution (phosphate buffered saline containing 0.1% v/v Triton X-100 and 20 µg/mL Hoechst 33342) at room temperature for 30 minutes. The permeabilization solution was discarded, and the fluorescence value (excitation at 360 nm, emission at 460 nm) was read on a microplate reader. • 6. 50 µL of repair solution (50 mM citric acid buffer) was added to all wells, and the plate was incubated at 70°C for 2 hours on a constant temperature incubation shaker. The microplate was then removed, equilibrated to room temperature, and the liquid was discarded. • 7. A sufficient amount of antibody dilution buffer (Tris Buffered Saline-Tween solution containing 1% w/v bovine serum albumin) was prepared and stored in a 4°C refrigerator until use. • 8. Primary antibody dilution (EED antibody diluted 1:1000 with antibody dilution buffer) was prepared. 30 µL of antibody dilution buffer without antibody was added to the negative control group. 30 µL of the primary antibody dilution was added to the cells in the other groups, and the plate was incubated overnight at 4°C. • 9. The primary antibody dilution was discarded. The plate was washed 3 times with 90 µL of Tris Buffered Saline-Tween solution, and the wash solution was discarded. Secondary antibody dilution (HRP-linked antibody diluted 1:500 with antibody dilution buffer) was prepared, and 30 µL was added to the cells. The plate was incubated at room temperature for 2 hours. • 10. The secondary antibody dilution was discarded. The plate was washed 3 times with 90 µL of Tris Buffered Saline-Tween solution, and the wash solution was discarded. 30 µL of TMB substrate solution was added, and the plate was incubated at room temperature in the dark for 15 minutes. Then, 30 µL of stop solution (2 M sulfuric acid) was added to terminate the reaction. […]

Structures were worked out from names or drawings and are uncertain. Bounds are passed on as bounds.

For orientation: IC50 means the concentration that inhibits the measured activity by half. As usually defined, the Dmax is the largest share of the target that was removed. A lower Dmax goes with a partial loss of target. For the compound `Cn1nc(C2CCC(=O)NC2=O)c2ccc(N3CCC(CN4CCC(NC(=O)c5ccc(-c6cnc(NCc7c(F)ccc8c7CCO8)n7cnc(Cl)c67)c(C(F)(F)F)n5)CC4)CC3)cc21` (centres unmarked), the half-inhibitory concentration (IC50) in assay [1] came to 1.5 nM. The Dmax in assay [2] came to 78%.

Regarding `Cc1cc(-c2cnc(NCc3c(F)ccc4c3CCO4)n3cnc(Cl)c23)ccc1C1CCN(CC2CCN(c3ccc4c(C5CCC(=O)NC5=O)nn(C)c4c3)CC2)CC1` (centres unmarked), the IC50 in assay [1] was found to be 0.76 nM. The compound further showed a maximal degradation (Dmax) in assay [2] of 62%.

In the case of `Cn1c(=O)n(C2CCC(=O)NC2=O)c2ccc(N3CCC(CN4CCC(c5cccc(-c6cnc(NCc7c(F)ccc8c7CCO8)n7cnc(Cl)c67)c5)CC4)CC3)cc21` (centres unmarked), the IC50 in assay [1] is 0.7 nM. This compound also yielded a Dmax in assay [2] of 57%.

As to `Cn1nc(C2CCC(=O)NC2=O)c2ccc(N3CCC(CN4CCC(c5ncc(-c6cnc(NCc7c(F)ccc8c7CCO8)n7cc(C#N)nc67)cn5)CC4)CC3)cc21` (centres unmarked), the IC50 in assay [1] was found to be 1 nM. Further, in assay [2], the Dmax amounted to 69%.

For `Cc1ncsc1-c1ccc([C@H](C)NC(=O)[C@@H]2C[C@@H](O)CN2C(=O)[C@@H](NC(=O)CCCNC(=O)c2ccc(-c3cnc(NCc4c(F)ccc5c4CCO5)n4cnc(C)c34)cn2)C(C)(C)C)cc1`, in assay [1], the IC50 stood at 60 nM. In assay [2], the Dmax was determined as 78%.

As for `O=C1CCC(N2C(=O)c3ccc(N4CCC(CN5CCC(c6ccc(-c7cnc(NCc8c(F)ccc9c8CCO9)n8cnc(Cl)c78)cc6)CC5)CC4)cc3C2=O)C(=O)N1` (centres unmarked), the IC50 in assay [1] was determined as 49 nM. This compound also gave a maximal degradation (Dmax) in assay [2] of 32%.

As for `Cn1c(=O)n(C2CCC(=O)NC2=O)c2ccc(N3CCC(CN4CCC(c5ccc(-c6cnc(NCc7c(F)ccc8c7CCO8)n7cnc(Cl)c67)c(C(F)(F)F)n5)CC4)CC3)cc21` (centres unmarked), the half-maximal inhibitory concentration (IC50) in assay [1] worked out at 4.2 nM. Besides, in assay [2], the Dmax came out at 50%.

For the compound `Cn1nc(C2CCC(=O)NC2=O)c2cc(F)c(N3CCC(CN4CCC(c5ccc(-c6cnc(NCc7c(F)ccc8c7CCO8)n7cnc(Cl)c67)cc5)CC4)CC3)cc21` (centres unmarked), the concentration for half-maximal inhibition (IC50) in assay [1] amounted to 6 nM. In addition, in assay [2], the Dmax is recorded as 63%.

`Cc1cc(CN2CCC(N3CCN(c4ccc5c(c4)n(C)c(=O)n5C4CCC(=O)NC4=O)CC3)C(F)(F)C2)ccc1-c1cnc(NCc2c(F)ccc3c2CCO3)n2cnc(Cl)c12` (centres unmarked): the IC50 in assay [1] was 70 nM. The maximal degradation (Dmax) in assay [2] is 43%.

On to `Cn1c(=O)n(C2CCC(=O)NC2=O)c2ccc(N3CCC(CN4CCC(c5ccc(-c6cnc(NCc7c(F)ccc8c7CCO8)n7cnc(Cl)c67)cn5)CC4)CC3)cc21` (centres unmarked), for which, in assay [1], the IC50 is below 0.1 nM. This compound also yielded a maximal degradation (Dmax) in assay [2] of 66%.

Turning to `Cn1c(=O)n(C2CCC(=O)NC2=O)c2ccc(N3CCC(CN4CCC(c5ccc(-c6cnc(NCc7c(F)ccc8c7CCO8)n7cnc(S(C)(=O)=O)c67)c(C(F)(F)F)n5)CC4)CC3)cc21` (centres unmarked), the half-inhibitory concentration (IC50) in assay [1] stood at 3.8 nM. The compound further showed a Dmax in assay [2] of 52%.

Regarding `Cc1nc(C(=O)NCCCC(=O)N[C@H](C(=O)N2C[C@H](O)C[C@H]2C(=O)N[C@@H](C)c2ccc(-c3scnc3C)cc2)C(C)(C)C)ccc1-c1cnc(NCc2c(F)ccc3c2CCO3)n2cnc(I)c12`, in assay [1], the IC50 is 45 nM. Moreover, the maximal degradation (Dmax) in assay [2] stood at 63%.

In the case of `Cc1ncsc1-c1ccc(CNC(=O)[C@@H]2C[C@@H](O)CN2C(=O)[C@@H](NC(=O)C2CN(c3ccc(-c4cnc(NCc5c(F)ccc6c5CCO6)n5cnnc45)cc3)C2)C(C)C)cc1`, the IC50 in assay [1] stood at 240 nM. For the same compound, in assay [2], the greatest degradation seen (Dmax) is 31%.

As to `Cc1nc(C2CCN(CC3CCN(c4cc5c(cc4F)c(C4CCC(=O)NC4=O)nn5C)CC3)CC2)ccc1-c1cnc(NCc2c(F)ccc3c2CCO3)n2cnc(Cl)c12` (centres unmarked), the concentration for half-maximal inhibition (IC50) in assay [1] was found to be 2 nM. The compound also yielded a Dmax in assay [2] of 56%.

Take `Cc1ncsc1-c1ccc([C@H](C)NC(=O)[C@@H]2C[C@@H](O)CN2C(=O)[C@@H](NC(=O)C2CN(c3ccc(-c4cnc(NCc5c(F)ccc6c5CCO6)n5cnc(I)c45)cc3)C2)C(C)(C)C)cc1`: the half-maximal inhibitory concentration (IC50) in assay [1] is 38 nM. In assay [2], this compound yielded a Dmax of 76%.

Turning to `Cc1ncsc1-c1ccc([C@H](C)NC(=O)[C@@H]2C[C@@H](O)CN2C(=O)[C@@H](NC(=O)CNC2CN(c3ccc(-c4cnc(NCc5c(F)ccc6c5CCO6)n5cnnc45)cn3)C2)C(C)(C)C)cc1`, in assay [1], the half-inhibitory concentration (IC50) is 211 nM. This compound also showed a Dmax in assay [2] of 73%.

Consider `Cn1nc(C2CCC(=O)NC2=O)c2ccc(N3CCC(CN4CCC(n5cc(-c6cnc(NCc7c(F)ccc8c7CCO8)n7cnc(Cl)c67)cn5)CC4)C(F)(F)C3)cc21` (centres unmarked), for which the IC50 in assay [1] was found to be 7 nM. In addition, in assay [2], the Dmax was found to be 71%.

As for `Cn1nc(C2CCC(=O)NC2=O)c2ccc(N3CCC(CN4CCC(NC(=O)c5ccc(-c6cnc(NCc7c(F)ccc8c7CCO8)n7cnc(Cl)c67)cn5)CC4)C(F)(F)C3)cc21` (centres unmarked), the concentration for half-maximal inhibition (IC50) in assay [1] came to 7 nM. This compound also registered a Dmax in assay [2] of 72%.

Take `Cn1nc(C2CCC(=O)NC2=O)c2ccc(N3CCC(CN4CCC(c5ccc(-c6cnc(NCc7c(F)ccc8c7CCO8)n7cnc(C(F)(F)F)c67)cc5)CC4)CC3)cc21` (centres unmarked): the IC50 in assay [1] was 5 nM. The Dmax in assay [2] was 67%.

As to `Cc1nc(CN2CCC(N3CCN(c4ccc5c(C6CCC(=O)NC6=O)nn(C)c5c4)CC3)C(F)(F)C2)ccc1-c1cnc(NCc2c(F)ccc3c2CCO3)n2cnc(Cl)c12` (centres unmarked), the 50% inhibitory concentration (IC50) in assay [1] came out at 2.18 nM. The compound further showed a Dmax in assay [2] of 48%.

Consider `Cc1nc(C2CCN(CC3CCN(c4ccc5c(c4)n(C)c(=O)n5C4CCC(=O)NC4=O)CC3)CC2)ccc1-c1cnc(NCc2c(F)ccc3c2CCO3)n2cnc(S(C)(=O)=O)c12` (centres unmarked), for which the half-maximal inhibitory concentration (IC50) in assay [1] was determined as 0.7 nM. The maximal degradation (Dmax) in assay [2] came to 61%.

Regarding `Cc1nc(N2CCC(CN3CCN(c4ccc5c(C6CCC(=O)NC6=O)nn(C)c5c4)CC3)CC2)ccc1-c1cnc(NCc2c(F)ccc3c2CCO3)n2cnc(Cl)c12` (centres unmarked), in assay [1], the IC50 is 20 nM. For the same compound, in assay [2], the greatest degradation seen (Dmax) amounted to 56%.

Take `Cn1c(=O)n(C2CCC(=O)NC2=O)c2ccc(N3CCC(CN4CCC(c5ccc(-c6cnc(NCc7c(F)ccc8c7CCO8)n7cnc(Cl)c67)cc5)CC4)C(F)(F)C3)cc21` (centres unmarked): the IC50 in assay [1] turned out to be 13 nM. Further, in assay [2], the Dmax turned out to be 62%.

In the case of `Cn1nc(C2CCC(=O)NC2=O)c2ccc(N3CCC(CN4CCC(c5ccc(-c6cnc(NCc7c(F)ccc8c7CCO8)n7cnc(C#N)c67)cc5)CC4)CC3)cc21` (centres unmarked), in assay [1], the IC50 is 1 nM. The same compound had a maximal degradation (Dmax) in assay [2] of 65%.

For `Cn1nc(C2CCC(=O)NC2=O)c2ccc(N3CCN(C4CCN(Cc5ccc(-c6cnc(NCc7c(F)ccc8c7CCO8)n7cnc(Cl)c67)cn5)CC4(F)F)CC3)cc21` (centres unmarked), the IC50 in assay [1] amounted to 1.15 nM. In addition, the greatest degradation seen (Dmax) in assay [2] worked out at 53%.
